From patent publication US20240382475A1, “Quinazoline Derivative, Or Preparation Method Therefor And Use Thereof” (Zhejiang Hisun Pharmaceutical Co., Ltd., priority 2021, published 2024)

Assay: Pharmacokinetic evaluation in beagle dogs
Settings: male, dog, in vivo, Oral 2 mg/kg, read-out: Plasma concentration Cmax
Method: Beagle, male, 13 to 14 months old, purchased from Beijing Mas Biotechnology Co., Ltd.
Intravenous injection group: an appropriate amount of the compound to be tested was weighed, and an appropriate amount of DMA:30% Solutol HS-15:Saline=5:5:90 (v/v/v) was added, vortexed, and a solution with a final concentration of 0.5 mg/mL was prepared.
Intragastric administration group: an appropriate amount of the compound to be tested was weighed, and an appropriate amount of DMA:30% Solutol HS-15:Saline=5:5:90 (v/v/v) was added, vortexed, and a solution with a final concentration of 1 mg/mL was prepared.
The beagle dogs were divided into intravenous injection group (3 dogs/group) and intragastric administration group (3 dogs/group) according to the compound to be tested.
Intravenous injection group: dogs were fasted overnight and then administered by intravenous injection (administration dosage was 0.5 mg/kg, and administration volume was 1 mL/kg), and ate 4 hours after administration. […]
Intravenous injection group: about 0.5 mL of blood was collected through jugular vein into EDTA-K2 anticoagulant tubes at 0.083 hour, 0.25 hour, 0.5 hour, 1 hour, 2 hours, 4 hours, 8 hours and 24 hours after administration. […] The collected plasma sample was stored at −40˜−20° C. before analysis. […]

COc1cc2nc(C)nc(N[C@H](C)c3cc(N)cc(C(F)(F)F)c3)c2cc1O[C@H]1CCOC1 [BI-3406, reference compound]
Cmax: 180 ± 63.3 ng/mL
